No constants are given. Whether binding was seen depends on the method and setting. Binding seen in cells or lysates may run through a third protein. A result given as binding can be weak or reduced; the word gives no strength.

The values below come from paper PMC11996887.

For the experiment, the target named is T1, PGLYRP2, full-length expression construct (human) (UniProt Q96PD5).
T1 sequence: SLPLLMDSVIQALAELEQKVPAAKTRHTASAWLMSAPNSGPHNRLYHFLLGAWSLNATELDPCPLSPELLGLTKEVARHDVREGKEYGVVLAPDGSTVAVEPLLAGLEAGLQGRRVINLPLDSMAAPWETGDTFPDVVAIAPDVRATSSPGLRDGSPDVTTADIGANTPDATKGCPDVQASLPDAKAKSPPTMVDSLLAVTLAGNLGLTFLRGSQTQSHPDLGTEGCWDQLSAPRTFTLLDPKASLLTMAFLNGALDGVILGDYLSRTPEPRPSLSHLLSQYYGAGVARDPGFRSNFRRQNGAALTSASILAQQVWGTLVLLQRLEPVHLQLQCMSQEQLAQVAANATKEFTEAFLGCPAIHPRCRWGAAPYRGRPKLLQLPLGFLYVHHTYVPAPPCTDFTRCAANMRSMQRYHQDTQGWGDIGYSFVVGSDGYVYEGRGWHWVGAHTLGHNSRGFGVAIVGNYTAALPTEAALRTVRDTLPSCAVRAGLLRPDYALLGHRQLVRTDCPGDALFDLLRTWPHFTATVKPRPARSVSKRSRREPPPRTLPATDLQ
As to the kind of experiment: pull-down; FLAG pull-down of HBV proteins with PGLYRP2 (full-length and truncated constructs); details only in Supplemental Figure 4B-D.

As for “HBs (hepatitis B virus surface protein) (from UniProt P03138)”, the binding result is listed as “binds”.
